Laboratory results reported in article PMC7862700.
Only a part is listed here, and it is no random draw. At the low end of the ranking, values are background and their order means little.

Protein sequences, listed by entry. Tags and fused reporters are not part of them. Lines headed by an entry give the natural chain unless they say otherwise; changes in a name come on top.
UniProt O43186: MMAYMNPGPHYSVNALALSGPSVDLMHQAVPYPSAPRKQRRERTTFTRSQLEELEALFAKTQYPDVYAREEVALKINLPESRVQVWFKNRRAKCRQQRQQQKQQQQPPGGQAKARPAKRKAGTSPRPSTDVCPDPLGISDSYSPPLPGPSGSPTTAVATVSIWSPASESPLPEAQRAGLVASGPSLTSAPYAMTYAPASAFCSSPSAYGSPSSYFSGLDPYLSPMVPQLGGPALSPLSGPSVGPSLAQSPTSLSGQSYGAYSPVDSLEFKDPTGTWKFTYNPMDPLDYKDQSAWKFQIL

Experiments:
[1] = biological target: T1, FEV (UniProt Q99581); test: DAPPL (digital affinity profiling via proximity ligation, sequencing); settings: 10 mM Tris-HCl pH 7.5, 50 mM NaCl, 1 mM DTT, 4% glycerol, room temperature, 30 min; GST-TFs on glutathione beads, 16-mer random dsDNA library, 0.1% …; high values mean tight binding; double strand, one strand shown; scale: fold enrichment (6-mer frequency, TF over GST control)
T1 sequence: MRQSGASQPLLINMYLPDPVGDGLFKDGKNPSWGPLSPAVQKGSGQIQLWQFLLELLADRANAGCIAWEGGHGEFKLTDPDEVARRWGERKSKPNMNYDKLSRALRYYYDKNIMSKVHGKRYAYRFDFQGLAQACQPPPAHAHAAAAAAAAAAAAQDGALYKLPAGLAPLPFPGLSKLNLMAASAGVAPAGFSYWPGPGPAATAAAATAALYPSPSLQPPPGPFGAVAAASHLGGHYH

[2] = biological target: CRX (UniProt O43186); test: as above; settings: 10 mM Tris-HCl pH 7.5, 50 mM NaCl, 1 mM DTT, 4% glycerol, room temperature, 30 min; GST-TFs on glutathione beads, 16-mer random dsDNA library, 0.1% …; high values mean tight binding; double strand, one strand shown; scale: fold enrichment (6-mer frequency, TF over GST control)

| Sequence | binding signal [1] | binding signal [2] |
| --- | --- | --- |
| TGCAAG | 0.962 | 0.86 |
| CGACAT | 1.31 | 0.987 |
| CCTTAT | 1.4 | 1.77 |
| TGACCA | 1.22 | 0.988 |
| GCCGGA | 1.59 | 0.534 |
| GTAGTT | 0.945 | 0.799 |
| AATACG | 1.19 | 1.36 |
| TGTACG | 1.2 | 0.864 |
| CTCGAG | 1.2 | 1.26 |
| TCGAAC | 0.992 | 1.07 |
| ATAGGG | 0.971 | 0.937 |
| ACGGTA | 0.963 | 0.889 |
| TCCGCC | 1.88 | 1.05 |
| GATTGC | 0.933 | 0.96 |
| CACTGT | 1.09 | 0.83 |
| TAGTGT | 1.02 | 1.29 |
| TGGAAG | 0.861 | 0.909 |
| TCACGG | 0.971 | 0.834 |
| CTTAAC | 1.27 | 2.4 |
| GGACTT | 1.4 | 1.08 |

| Sequence | binding signal [1] | binding signal [2] |
| --- | --- | --- |
| ACGGCA | 0.977 | 0.798 |
| ACTTGT | 1.28 | 1.1 |
| GCTATC | 1.08 | 0.949 |
| AACGCC | 1.11 | 0.977 |
| CGGAAA | 3.21 | 0.603 |
| CTTCCA | 1.43 | 1.42 |
| AGTACC | 0.981 | 0.727 |
| TCTGGC | 1.16 | 1.31 |
| CGCCAT | 0.999 | 0.808 |
| CTGTAG | 0.883 | 0.78 |
| AGGGAA | 0.891 | 0.749 |
| AGGATG | 0.922 | 0.83 |
| TCATAA | 1 | 1.38 |
| CCCGAT | 1.27 | 1.37 |
| TCCTAA | 1.41 | 2.09 |
| CGACAA | 1.3 | 1.03 |
| ATAGAT | 1.15 | 1.49 |
| ATAAGG | 0.932 | 1.28 |
| CCAACC | 1.1 | 0.767 |
| AGAAGT | 0.899 | 0.997 |

| Sequence | binding signal [1] | binding signal [2] |
| --- | --- | --- |
| TGCGAC | 1.24 | 0.891 |
| GTCCGC | 1.04 | 0.654 |
| TCGACG | 0.98 | 0.913 |
| CACAAA | 1.09 | 0.979 |
| ACAACC | 1.34 | 0.852 |
| CCTTGC | 1.27 | 1.02 |
| ATTTGC | 1.29 | 1.5 |
| GTTTTG | 1.16 | 0.98 |
| CGCCCC | 1.21 | 0.834 |
| TGGTTG | 0.874 | 0.692 |
| TAGGTC | 0.929 | 0.908 |
| TGCCCT | 1.18 | 0.985 |
| CTTATA | 1.31 | 2.27 |
| GGATAC | 0.958 | 0.677 |
| CCCTGT | 1.04 | 0.886 |
| AGTAGC | 1.04 | 0.834 |
| GATCCA | 1.07 | 1.23 |
| TTGTGC | 1.18 | 1.09 |

Whole records from above. Order of values: binding signal [1]	binding signal [2]
GATCCA is listed as 1.07	1.23
TAGGTC is listed as 0.929	0.908
